These are yes or no findings as the source states them, for the method shown. In cells and extracts the contact can be indirect. Here binding means that the protein was enriched with, or labelled near, the bait; the list need not be complete. Where a sequence is shown, tags or fusion partners need not be part of it.
Molecular target: T1, Flag-ALDH9A1 (human) (UniProt P49189)
T1 sequence: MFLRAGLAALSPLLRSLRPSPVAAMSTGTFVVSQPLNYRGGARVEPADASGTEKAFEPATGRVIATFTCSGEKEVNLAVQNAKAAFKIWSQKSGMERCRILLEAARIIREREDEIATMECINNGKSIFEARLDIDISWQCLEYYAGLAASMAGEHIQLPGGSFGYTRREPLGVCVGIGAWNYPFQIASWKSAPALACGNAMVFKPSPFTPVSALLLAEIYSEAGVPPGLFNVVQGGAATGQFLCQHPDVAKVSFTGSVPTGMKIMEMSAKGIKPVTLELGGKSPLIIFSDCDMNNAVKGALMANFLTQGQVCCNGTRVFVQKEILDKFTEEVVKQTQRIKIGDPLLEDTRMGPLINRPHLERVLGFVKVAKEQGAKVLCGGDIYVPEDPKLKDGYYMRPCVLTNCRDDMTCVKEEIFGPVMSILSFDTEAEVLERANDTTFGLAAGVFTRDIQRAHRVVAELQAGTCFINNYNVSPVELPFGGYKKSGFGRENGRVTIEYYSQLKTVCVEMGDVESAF
Assay: affinity purification with mass spectrometry; lysate of HEK293T cells stably transfected with ALDH9A1-flag lentivirus or vector virus; anti-flag antibodies in Co-IP buffer overnight at 4 °C; RIPA wash; shotgun LC-MS/MS

Protein sequences, listed by entry. Tags and fused reporters are not part of them.
UniProt P06748: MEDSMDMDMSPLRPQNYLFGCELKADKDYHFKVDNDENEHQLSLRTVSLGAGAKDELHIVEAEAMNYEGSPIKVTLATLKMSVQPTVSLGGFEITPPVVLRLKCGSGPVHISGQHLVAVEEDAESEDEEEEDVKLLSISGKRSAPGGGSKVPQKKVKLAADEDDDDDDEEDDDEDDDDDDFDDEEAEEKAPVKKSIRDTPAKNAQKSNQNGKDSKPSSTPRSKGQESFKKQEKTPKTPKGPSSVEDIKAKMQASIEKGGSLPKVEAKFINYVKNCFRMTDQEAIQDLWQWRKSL

For “nucleophosmin 1 (NPM1), endogenous (from UniProt P06748 1-294)”, which binding is on record?
The binding was “binds”.

Reference: paper PMC11263707
